A: 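Protease assay of ClpP1P2, read by the AMC dye that it sets free. Target: ClpP1P2, Mycobacterium tuberculosis (UniProt P9WPC5 and UniProt P9WPC3). Tested at 50 µM. Direction is inferred from only a few compounds that gave an IC50; most scored high, so higher reads as stronger inhibition. Most other retested compounds had strongly negative values. About 69,000 compounds were tested under these conditions; 0.015% (about 10) showed 50% or more at least once.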
B: 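Histidine-tRNA ligase, Leishmania infantum (UniProt A4I591). Enzyme assay of histidyl-tRNA synthetase; the read-out is not stated. Concentration: 30 µM. Higher reads as stronger inhibition (inferred: compounds with an IC50 in retests scored well above the rest). The assay is labelled LdHisRS but filed under L. infantum. About 69,000 compounds were tested under these conditions; 0.6% (about 410) showed 50% or more at least once.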

Chains of the proteins cited; added tags and fusions are not shown. Residues count along the entry.
UniProt P9WPC5, whole entry: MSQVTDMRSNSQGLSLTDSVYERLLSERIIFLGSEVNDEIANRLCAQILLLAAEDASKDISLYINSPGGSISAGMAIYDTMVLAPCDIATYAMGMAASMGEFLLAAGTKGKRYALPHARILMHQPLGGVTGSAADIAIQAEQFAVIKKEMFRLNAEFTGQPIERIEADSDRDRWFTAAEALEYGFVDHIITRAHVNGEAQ
UniProt P9WPC3, whole entry partner: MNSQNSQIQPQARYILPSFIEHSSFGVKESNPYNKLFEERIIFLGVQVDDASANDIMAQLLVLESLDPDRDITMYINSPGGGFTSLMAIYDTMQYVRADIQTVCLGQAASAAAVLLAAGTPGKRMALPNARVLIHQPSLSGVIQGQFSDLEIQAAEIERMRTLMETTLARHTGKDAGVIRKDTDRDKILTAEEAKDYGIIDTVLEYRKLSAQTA
UniProt A4I591, 1-473: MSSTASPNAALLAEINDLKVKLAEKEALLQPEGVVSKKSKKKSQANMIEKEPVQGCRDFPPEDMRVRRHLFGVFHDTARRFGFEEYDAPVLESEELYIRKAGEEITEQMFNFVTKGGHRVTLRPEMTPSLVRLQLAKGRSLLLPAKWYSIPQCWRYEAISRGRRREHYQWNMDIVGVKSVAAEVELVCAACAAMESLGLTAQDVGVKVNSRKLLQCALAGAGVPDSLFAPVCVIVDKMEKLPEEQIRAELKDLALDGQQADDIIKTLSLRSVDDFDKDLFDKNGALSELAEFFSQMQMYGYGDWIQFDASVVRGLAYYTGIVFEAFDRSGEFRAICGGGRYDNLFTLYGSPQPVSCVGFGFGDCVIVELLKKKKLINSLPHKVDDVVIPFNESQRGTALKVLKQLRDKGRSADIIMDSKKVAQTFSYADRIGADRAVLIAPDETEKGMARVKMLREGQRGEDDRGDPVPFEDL

The filed quantity is “Percent Effect” (%). The controls that fix the scale are not given in the record; negative values are as filed. The compounds are a random part of those screened.

- O=C(c1ccc2c(c1)OCO2)N1C[C@@H](CN2CCCCC2)[C@@H](CO)C1 : A: 0.7065%; B: 9.375%
- Cn1cc(C2(C)CN(Cc3ccc(Cl)c(F)c3)CCO2)cn1 (configuration not stated) : A: -1.649%; B: -1.299%
- CC(C)C(=O)NS(=O)(=O)c1ccc(F)c(C(F)(F)F)c1 : A: 5.424%; B: 14.29%
- CC(C)c1nc(N2CCN3CCCC3C2)c2cnn(C)c2n1 (configuration not stated) : A: -6.149%; B: 13.33%
- NC(=O)c1ccc(N2CCCCC2)c(NC(=O)c2cc(F)ccc2F)c1 : A: -15.8%; B: 18.28%
- CNC(=O)c1cccc(C2CNCCN2C)c1 (configuration not stated) : A: 8.123%; B: 16.67%
- Cc1nccc(N2CCCC(c3nnc(Cn4ccnc4C)n3C)C2)n1 (configuration not stated) : A: 0.4292%; B: -5.195%
- CN(Cc1csc(-c2cccs2)n1)Cc1cccnc1N : A: -10.38%; B: 20%
- COc1cc(Cl)c(C)cc1-n1nnc(C(=O)O)c1-c1ccncc1 : A: -11.62%; B: 1.695%
- NC(=O)C(Cc1ccccc1)NS(=O)(=O)Cc1ccccc1F (configuration not stated) : A: -20.38%; B: 16%
- CCCS(=O)(=O)N1CCC(n2nc(-c3cc(C)oc3C)ccc2=O)CC1 : A: 15.17%; B: 9.859%
- COc1ccc(C[C@H]2CN(C(=O)CS(C)(=O)=O)CC[C@H]2OC)cc1 : A: 6.221%; B: 19.23%
- Cc1ccccc1CNC(=O)Cn1nc(-c2ccc(F)cc2)oc1=O : A: -21.27%; B: 19.64%
- Cc1ccc(N2CCC(c3nccn3Cc3cscn3)CC2)nn1 : A: 3.216%; B: 13.54%
- CC(=O)N1C[C@@H](c2ccsc2)[C@@H]2CN(Cc3cccc(Cl)c3)CC[C@@H]21 : A: -21.07%; B: 34.29%
- O=S(=O)(CCCn1cncn1)Cc1ccccc1Cl : A: -4.452%; B: 19.74%
- Cc1nc(C2(O)CCCNCC2)sc1CCOc1ccc(F)c(F)c1 (configuration not stated) : A: -2.492%; B: 22%
- O=C(Nc1cccnc1N1CCSCC1)c1cc2c(s1)CCCCC2 : A: -7.955%; B: 38.55%
- CNc1nc(CNC(=O)Nc2cc(Cl)ccc2F)cs1 : A: -16.74%; B: 17.86%
- O=C(NCc1ccccn1)[C@]12COC[C@H]1CN(Cc1ccsc1)C2 : A: -5.09%; B: 11.11%
- Cc1nccn1-c1cncc(C2CCCN2Cc2ccccc2)n1 (configuration not stated) : A: -0.6387%; B: 4.348%
- N#CC1=C(N)Nn2c(nnc2-c2ccccc2Br)S1 : A: -16.51%; B: 7.895%
- COCCCNC(=O)CN(C)Cc1ccc(F)cc1Cl : A: -12.81%; B: 12.12%
- CO[C@H]1CCN(S(=O)(=O)c2cccs2)[C@H]1Cc1ccncc1 : A: -7.058%; B: 8.824%
- Cc1nc2n(n1)CC(Nc1cc(C(F)(F)F)nc3ncnn13)CC2 (configuration not stated) : A: -1.755%; B: 23.08%
- Cc1cnn(CC(C)NCC(=O)Nc2ccc(Cl)cn2)c1 (configuration not stated) : A: -0.04197%; B: 6%
- Cc1cc(C)nc(Nc2cc(C)nc(C3CCN(C(C)C)C3)n2)n1 (configuration not stated) : A: 23.9%; B: 10.14%
- Cc1cccc(C)c1-c1cc(NCCO)nc2[nH]ccc12 : A: -3.628%; B: 10%
- CC(C)N(C)Cc1cn2c(n1)CN(C(=O)c1ccc[nH]1)CC2 : A: 3.096%; B: 4%
- CCCC(Nc1nc(COCC)nc2c1CCNCC2)c1nccn1C (configuration not stated) : A: -6.532%; B: 10.45%
- CCc1nnc(CN2CCN(C(=O)c3cc4ccccc4[nH]3)CC2)o1 : A: 12.38%; B: 13.33%
- COc1cc2c(cc1OC)C(=O)C(Sc1nnc(C)o1)C2 (configuration not stated) : A: 3.317%; B: 12.09%
- Cc1ccccc1C(C(=O)NCc1nc(-c2ncccn2)no1)N(C)C (configuration not stated) : A: -2.279%; B: 21.13%
- CC(C)NC(=O)N1CC[C@H]2[C@H]1CCN2c1ncccn1 : A: 0.4956%; B: 15.38%
- COCCOC(=O)N1CCN2C[C@@H](CO)[C@H](c3ccccc3)[C@H]2C1 : A: -11.95%; B: 2.041%
- Cc1ccccc1CN(CC(=O)O)C(=O)COCC1CC1 : A: 9.362%; B: 19.3%
- O=C1CCC2(CCNCC2)CN1Cc1nncn1CCc1ccccc1 : A: -12.14%; B: 19.47%

For reference, 3 entries once more:

{"smiles": "CCCC(Nc1nc(COCC)nc2c1CCNCC2)c1nccn1C", "stereo": "configuration not stated", "A": -6.532, "B": 10.45}
{"smiles": "N#CC1=C(N)Nn2c(nnc2-c2ccccc2Br)S1", "A": -16.51, "B": 7.895}
{"smiles": "CC(=O)N1C[C@@H](c2ccsc2)[C@@H]2CN(Cc3cccc(Cl)c3)CC[C@@H]21", "A": -21.07, "B": 34.29}

Data taken from ChEMBL document CHEMBL3988442, “University of Dundee, Small-Polar-MMV Screening Library” (2021).